From PubChem BioAssay AID1345085 (National Center for Advancing Translational Sciences (NCATS), 2018)
Inconclusive means that the source gave no clear call. Such entries were picked first, then a sample of the others. A potency beside an inconclusive call is a rough fit, not a confirmed value. Calls of active or inactive are those of the source. Calls follow the shape of the dose curve; as a rule, active = well fitted cell-killing curve with a large enough effect; inconclusive = small, poorly fitted or top-dose-only effect, or effect the other way; inactive = no such curve, though single readings can be large or run the other way. *1 amine or outer side, *2 acyl side, *3 side chain or, on linkers, in order; H or OH if unused. Where a SMILES comes first, the peptide text is derived from it. Bridges are numbered along the chain shown (N, C = ends). Roman numbers before positions name the chains, in order. [ ]: non-standard residue; d: D form. Actinocin(9to1) = Cc1c2oc3c(C)ccc(C(=O)[*:1])c3nc-2c(C(=O)[*:2])c(N)c1=O; NMeV = CN[C@H](C(=O)O)C(C)C; Sar = CNCC(=O)O

System: SKOV3
Assay: Confirmatory qHTS for gynecologic anti-cancer compounds from libraries of approved drugs and bioactive compounds; also: nearly all actives have a fitted effect of over 55% in size
Conditions: gynecologic cancer cell panel viability, ATPlite luminescence, 48 h; series mostly up to 57.6 µM
Outline: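 ATPlite luminescence read-out of cell viability; IC50 from 11-point 1:3 titrations, 57.5 uM to 0.977 nM, 48 h compound exposure at 37 C, 5% CO2. Cells seeded at 1,000/well 16 h before dosing.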
Potency is read from the fitted curve at half-maximal effect.

SMILES	Potency
CCCc1nn(C)c2c(=O)[nH]c(-c3cc(S(=O)(=O)N4CCN(C)CC4)ccc3OCC)nc12	inactive
CN1C2CCC1CC(OC(=O)[C@H](CO)c1ccccc1)C2 (stereo not given in full)	inactive
NC(=O)c1cccc2cn(-c3ccc([C@@H]4CCCNC4)cc3)nc12	inconclusive: 0.0485 µM [rising, partial curve, poor fit]
Cc1ccn(-c2ccc(-c3ncco3)cc2)c(=O)c1-c1ccc2nc(N)ncc2c1	inconclusive: 13.7 µM [cytotoxic, full curve]
CNC(=O)c1nn(C)c2c1C(C)(C)Cc1cnc(Nc3ccc(N4CCN(C)CC4)cc3)nc1-2	inconclusive: 0.217 µM [cytotoxic, full curve, poor fit]
Cc1cc(C2CCCCC2)n(O)c(=O)c1	inconclusive: 62.7 µM [rising, partial curve, poor fit]
COc1ccc2cc3[n+](cc2c1OC)CCc1cc2c(cc1-3)OCO2	inactive
CNC(=O)CN1CCC(Oc2cc3c(Nc4cccc(Cl)c4F)ncnc3cc2OC)CC1	inconclusive: 0.137 µM [cytotoxic, full curve, poor fit]
CCCCN(CCCC)CC(O)c1cc(Cl)cc2c1-c1ccc(Cl)cc1/C2=C/c1ccc(Cl)cc1 (stereo not given)	inactive
CN[C@@H](C)C(=O)N[C@H]1CN(C(=O)CC(C)C)CC[C@H]2CC[C@@H](C(=O)NC(c3ccccc3)c3ccccc3)N2C1=O	active: 0.611 µM
Cc1ccc2nc(N)[nH]c(=O)c2c1Sc1ccncc1	inconclusive: 0.0544 µM [rising, full curve, poor fit]
COc1cc2nccc(Oc3ccc(NC(=O)C4(C(=O)Nc5ccc(F)cc5)CC4)cc3)c2cc1OC	inconclusive: 17.2 µM [cytotoxic, partial curve, poor fit]
COc1cc(N2CCC(N(C)C)CC2)ccc1Nc1ncc(Cl)c(Nc2ccccc2P(C)(C)=O)n1	active: 6.11 µM
Fc1cc(-c2cccc3ncc(-c4cnn(C5CCNCC5)c4)nc23)cc(F)c1CN1CCOCC1	inconclusive: 34.3 µM [cytotoxic, partial curve, poor fit]
C#C[C@]1(O)CC[C@H]2[C@@H]3CCC4=CC(=O)CC[C@@H]4[C@H]3CC[C@@]21CC	inconclusive: 0.0015 µM [rising, full curve, poor fit]
CN(C)CCC(CSc1ccccc1)Nc1ccc(S(=O)(=O)NC(=O)c2ccc(N3CCN(Cc4ccccc4-c4ccc(Cl)cc4)CC3)cc2)cc1[N+](=O)[O-] (stereo not given)	inconclusive: 0.344 µM [cytotoxic, full curve]
C[C@@H](Oc1cc(-c2cnn(C3CCNCC3)c2)cnc1N)c1c(Cl)ccc(F)c1Cl	inconclusive: 34.3 µM [cytotoxic, single point]
NC(=O)c1cnc(-c2ccc(C3(N)CCC3)cc2)c(-c2ccccc2)c1	active: 9.68 µM
COc1cc(C(=O)N2CCC(N3CCN(C)CC3)CC2)ccc1Nc1ncc2c(n1)N(C)c1ccccc1C(=O)N2C	inconclusive: 0.0137 µM [rising, full curve, poor fit]
CCOC(=O)C1=C(C)NC2=C(C(=O)CC(C)(C)C2)C1c1ccc(-c2ccccc2)cc1 (stereo not given)	inactive

SMILES	Potency
Nc1nccc(Oc2ccc(NC(=O)c3c[nH]cc(-c4ccc(F)cc4)c3=O)cc2F)c1Cl	inconclusive: 0.122 µM [rising, full curve]
Cc1c(NC(=O)OCC2COCCN2)cn2ncnc(Nc3ccc4c(cnn4Cc4cccc(F)c4)c3)c12 (stereo not given)	inconclusive: 0.193 µM [rising, full curve, poor fit]
COc1cc2ncnc(Nc3ccc(F)c(Cl)c3)c2cc1OCCCN1CCOCC1	inconclusive: 5.44 µM [cytotoxic, single point]
COc1cc2c(Nc3ccc(NC(=O)c4ccccc4)cc3)ncnc2cc1OCCCN1CCOCC1	inactive
COc1c(C)c2c(c(O)c1C/C=C(\C)CCC(=O)O)C(=O)OC2	inconclusive: 24.3 µM [cytotoxic, partial curve, poor fit]
CC(=O)OC12COC1CC(O)C1(C)C(=O)C(O)C3=C(C)C(OC(=O)C(O)C(NC(=O)OC(C)(C)C)c4ccccc4)CC(O)(C(OC(=O)c4ccccc4)C21)C3(C)C (stereo not given)	inconclusive: 0.0097 µM [cytotoxic, full curve]
CC(C)(C(=O)NCC(F)(F)C(F)(F)F)C(=O)NC1C(=O)Nc2ccccc2-c2ccccc21 (stereo not given)	inactive
Nc1ccc(-c2ccc3ncc4ccc(=O)n(-c5cccc(C(F)(F)F)c5)c4c3c2)cn1	inconclusive: 0.0306 µM [cytotoxic, full curve]
COc1ccc(-c2cc3nccn3c(Nc3ncccc3C(N)=O)n2)cc1OC	inactive
CN1C(=O)C(Cc2c[nH]c3ccccc23)NC1=S (stereo not given)	inconclusive: 0.0019 µM [rising, full curve, poor fit]
Cc1nc(N)nc(N)c1-c1ccc(Cl)c(Cl)c1	inconclusive: 4.32 µM [cytotoxic, full curve]
C[C@]12CCC(=O)C=C1[C@@H]1C[C@@H]1[C@H]1[C@@H]3[C@@H]4C[C@@H]4[C@@]4(CCC(=O)O4)[C@@]3(C)CC[C@@H]12	inactive
CN1CCN(Cc2ccc(NC(=O)Nc3ccc(Oc4cc(NC(=O)C5CC5)ncn4)cc3)cc2C(F)(F)F)CC1	inconclusive: 17.2 µM [cytotoxic, partial curve]
COCCOc1nc(-c2ccc(Cl)c(Cl)c2)n(-c2ccc(NC(=O)CCl)cc2)n1	inconclusive: 30.6 µM [cytotoxic, single point]
Cc1c2oc3c(C)ccc(C(=O)N[C@@H]4C(=O)N[C@H](C(C)C)C(=O)N5CCC[C@H]5C(=O)N(C)CC(=O)N(C)[C@@H](C(C)C)C(=O)O[C@@H]4C)c3nc-2c(C(=O)N[C@@H]2C(=O)N[C@H](C(C)C)C(=O)N3CCC[C@H]3C(=O)N(C)CC(=O)N(C)[C@@H](C(C)C)C(=O)O[C@@H]2C)c(N)c1=O (I: T[dV]P[Sar][NMeV] / II: T[dV]P[Sar][NMeV]; ester I:1-I:C, II:1-II:C; linker I:N-II:N via Actinocin(9to1))	active: 0.544 µM
CC(=O)Nc1cccc(-n2c(=O)n(C3CC3)c(=O)c3c(Nc4ccc(I)cc4F)n(C)c(=O)c(C)c32)c1	active: 0.306 µM
Cn1cnc2c(F)c(Nc3ccc(Br)cc3F)c(C(=O)NOCCO)cc21	inconclusive: 0.685 µM [cytotoxic, partial curve]
Cc1nc(Nc2n[nH]c3c2CN(C(=O)NC(CN(C)C)c2ccccc2)C3(C)C)c2sccc2n1 (stereo not given)	active: 3.06 µM
Nc1cccc(-c2cc3c(Oc4cccc(O)c4)ncnc3[nH]2)c1	inconclusive: 0.0069 µM [rising, full curve, poor fit]
CCS(=O)(=O)c1cccc(-c2cc(C(=O)NC3CCN(C)CC3)c(C)c3[nH]c4ncc(C)cc4c23)c1	active: 4.76 µM

Individual results from above:
For Potency, Cc1nc(N)nc(N)c1-c1ccc(Cl)c(Cl)c1 is listed with inconclusive: 4.32 µM [cytotoxic, full curve]
For Potency, CC(=O)OC12COC1CC(O)C1(C)C(=O)C(O)C3=C(C)C(OC(=O)C(O)C(NC(=O)OC(C)(C)C)c4ccccc4)CC(O)(C(OC(=O)c4ccccc4)C21)C3(C)C (stereo not given) is listed with inconclusive: 0.0097 µM [cytotoxic, full curve]
